Values of other authors in US8974802B2, “Medicament for the treatment of cancer of the pancreas” (Erytech Pharma, priority 2007, dated 2015).
At least one read-out could not be matched to a standard name with certainty.

Details: in vivo; cited from earlier work

B1: asparaginase (protein, UniProt P00805 23-348, looked up)
L-asparaginase 2: LPNITILATGGTIAGGGDSATKSNYTVGKVGVENLVNAVPQLKDIANVKGEQVVNIGSQDMNDNVWLTLAKKINTDCDKTDGFVITHGTDTMEETAYFLDLTVKCDKPVVMVGAMRPSTSMSADGPFNLYNAVVTAADKASANRGVLVVMNDTVLDGRDVTKTNTTDVATFKSVNYGPLGYIHNGKIDYQRTPARKHTSDTPFDVSKLNELPKVGIVYNYANASDLPAKALVDAGYDGIVSAGVGNGNLYKSVFDTLATAAKTGTAVVRSSRVPTGATTQDAEVDDAKYGFVASGTLNPQKARVLLQLALTQTKDPQQIQQIFNQY
notes: bacterial enzyme, CAS number 9015-68-3, hydrolyses and depletes asparagine
half-life of the enzyme: 24 h
